Literature values as cited in patent US8658635B2, “Benzpyrazol derivatives as inhibitors of PI3 kinases” (GlaxoSmithKline Intellectual Property Development Limited, priority 2008, dated 2014).
Read-outs that look alike come from different tables or passages of the source. For at least one compound, name, drawing or mass did not settle the structure.

Tested on: Class I PI3-kinases

| Structure (SMILES) | IC50 (Fruman et al. 1998, read-out: IC50 values against each of these PI3-kinases) | IC50 (read-out: IC50 values against each of the various Class I PI3-kinases) |
| --- | --- | --- |
| O=c1cc(N2CCOCC2)oc2c(-c3ccccc3)cccc12 [LY294002] | 15 to 20 µM | – |
| COC[C@H]1OC(=O)c2coc3c2[C@@]1(C)C1=C(C3=O)[C@@H]2CCC(=O)[C@@]2(C)C[C@H]1OC(C)=O [wortmannin] | – | 0.001 to 0.01 µM |
